{
  "sequences": {"note": "Amino acid sequences for entries named in this document (tags omitted).", "UniProt O14939": "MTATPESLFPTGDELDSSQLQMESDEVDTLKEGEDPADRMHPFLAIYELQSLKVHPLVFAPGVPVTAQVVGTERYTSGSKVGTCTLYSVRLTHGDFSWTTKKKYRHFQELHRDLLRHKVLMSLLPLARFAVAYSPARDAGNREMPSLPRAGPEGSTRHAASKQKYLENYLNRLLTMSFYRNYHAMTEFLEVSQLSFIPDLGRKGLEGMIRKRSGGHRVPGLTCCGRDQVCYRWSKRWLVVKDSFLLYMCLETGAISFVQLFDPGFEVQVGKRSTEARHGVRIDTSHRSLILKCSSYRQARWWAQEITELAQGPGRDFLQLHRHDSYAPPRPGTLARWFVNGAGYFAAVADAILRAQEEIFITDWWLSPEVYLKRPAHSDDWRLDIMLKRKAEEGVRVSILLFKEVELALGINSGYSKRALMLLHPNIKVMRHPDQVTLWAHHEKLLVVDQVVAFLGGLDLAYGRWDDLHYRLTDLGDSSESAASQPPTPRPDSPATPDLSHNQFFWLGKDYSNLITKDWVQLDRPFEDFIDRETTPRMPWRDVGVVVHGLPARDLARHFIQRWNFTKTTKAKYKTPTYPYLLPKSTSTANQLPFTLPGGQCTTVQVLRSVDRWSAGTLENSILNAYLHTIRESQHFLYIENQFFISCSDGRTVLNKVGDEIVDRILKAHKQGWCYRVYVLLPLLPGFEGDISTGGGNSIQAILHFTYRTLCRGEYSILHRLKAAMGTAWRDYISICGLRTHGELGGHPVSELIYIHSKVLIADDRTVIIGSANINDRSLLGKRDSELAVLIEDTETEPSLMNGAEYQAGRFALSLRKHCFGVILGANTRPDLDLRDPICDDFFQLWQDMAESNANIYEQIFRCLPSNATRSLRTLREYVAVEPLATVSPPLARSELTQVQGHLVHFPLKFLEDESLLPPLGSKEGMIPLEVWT", "UniProt P97813": "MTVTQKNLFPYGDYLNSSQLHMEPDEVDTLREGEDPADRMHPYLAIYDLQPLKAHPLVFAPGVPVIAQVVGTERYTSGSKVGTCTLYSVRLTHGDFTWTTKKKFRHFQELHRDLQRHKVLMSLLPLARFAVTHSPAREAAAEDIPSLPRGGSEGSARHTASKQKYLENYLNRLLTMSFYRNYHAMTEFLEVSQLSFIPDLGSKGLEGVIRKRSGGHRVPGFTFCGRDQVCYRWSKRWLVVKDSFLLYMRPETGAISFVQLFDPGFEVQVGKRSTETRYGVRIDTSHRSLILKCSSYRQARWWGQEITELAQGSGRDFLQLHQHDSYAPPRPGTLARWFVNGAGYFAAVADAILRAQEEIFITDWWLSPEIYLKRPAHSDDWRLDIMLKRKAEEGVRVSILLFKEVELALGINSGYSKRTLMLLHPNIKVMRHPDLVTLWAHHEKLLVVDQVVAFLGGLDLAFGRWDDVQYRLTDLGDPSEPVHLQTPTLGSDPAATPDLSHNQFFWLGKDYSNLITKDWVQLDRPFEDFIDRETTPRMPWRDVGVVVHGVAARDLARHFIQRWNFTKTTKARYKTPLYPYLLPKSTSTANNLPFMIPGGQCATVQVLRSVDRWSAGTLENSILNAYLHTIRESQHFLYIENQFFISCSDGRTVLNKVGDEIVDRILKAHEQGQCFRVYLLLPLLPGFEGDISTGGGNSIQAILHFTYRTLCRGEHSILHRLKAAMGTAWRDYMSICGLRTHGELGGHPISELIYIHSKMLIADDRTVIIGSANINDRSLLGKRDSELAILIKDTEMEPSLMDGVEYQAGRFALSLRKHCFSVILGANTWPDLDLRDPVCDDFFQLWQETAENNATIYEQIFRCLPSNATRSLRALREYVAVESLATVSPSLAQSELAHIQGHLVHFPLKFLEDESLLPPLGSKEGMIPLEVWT"},
  "source": "paper PMC7401755",
  "molecules": {"B1": {"name": "aquaporin-3 (AQP3), endogenous in immortalized human corneal epithelial (IHCE) cells (protein, UniProt Q92482 1-292)", "chain": "MGRQKELVSRCGEMLHIRYRLLRQALAECLGTLILVMFGCGSVAQVVLSRGTHGGFLTINLAFGFAVTLGILIAGQVSGAHLNPAVTFAMCFLAREPWIKLPIYTLAQTLGAFLGAGIVFGLYYDAIWHFADNQLFVSGPNGTAGIFATYPSGHLDMINGFFDQFIGTASLIVCVLAIVDPYNNPVPRGLEAFTVGLVVLVIGTSMGFNSGYAVNPARDFGPRLFTALAGWGSAVFTTGQHWWWVPIVSPLLGSIAGVFVYQLMIGCHLEQPPPSNEEENVKLAHVKHKEQI", "modifications": "both glycosylated and unglycosylated forms"}, "B2": {"name": "GST-tagged mouse AQP3 (protein, UniProt Q8R2N1 1-292)", "chain": "MGRQKELMNRCGEMLHIRYRLLRQALAECLGTLILVMFGCGSVAQVVLSRGTHGGFLTINLAFGFAVTLGILVAGQVSGAHLNPAVTFAMCFLAREPWIKLPIYALAQTLGAFLGAGIVFGLYYDAIWAFANNELFVSGPNGTAGIFATYPSGHLDMVNGFFDQFIGTAALIVCVLAIVDPYNNPVPRGLEAFTVGLVVLVIGTSMGFNSGYAVNPARDFGPRLFTALAGWGSEVFTTGRHWWWVPIVSPLLGSIAGVFVYQLMIGCHLEQPPPSTEEENVKLAHMKHKEQI"}},
  "key": {"[1]": {"biological_target": "T1, GST-tagged mouse AQP3 (mouse) (UniProt Q8R2N1)", "T1 sequence": "B2 chain", "assay": "co-IP; Sf9 cells infected 48 h with baculovirus for AQP3-GST, PLD2-His or both; lysed in RIPA buffer, precleared; IP with anti-GST or anti-PLD2 antibody 2 h at 4°C, IgG-coated Dynal beads, four washes with RIPA buffer; immunoblot with anti-GST or anti-His"}, "[2]": {"biological_target": "T2, aquaporin-3 (AQP3), endogenous in immortalized human corneal epithelial (IHCE) cells (human (endogenous in IHCE cells)) (UniProt Q92482)", "T2 sequence (chain, both glycosylated and unglycosylated forms)": "B1 chain", "assay": "co-IP; endogenous proteins from IHCE cell lysates in RIPA buffer; immunoprecipitation with an antibody recognizing AQP3 (Alomone Labs), western blotting for AQP3 or PLD2"}, "[3]": {"biological_target": "phospholipase D2 (PLD2), endogenous in immortalized human corneal epithelial (IHCE) cells (human (endogenous in IHCE cells)) (UniProt O14939)", "assay": "co-IP; endogenous proteins from IHCE cell lysates in RIPA buffer; immunoprecipitation with an antibody recognizing AQP3 (Alomone Labs), western blotting for AQP3 or PLD2"}, "[4]": {"biological_target": "His-tagged full-length mouse PLD2 (mouse) (UniProt P97813)", "assay": "co-IP; Sf9 cells infected 48 h with baculovirus for AQP3-GST, PLD2-His or both; lysed in RIPA buffer, precleared; IP with anti-GST or anti-PLD2 antibody 2 h at 4°C, IgG-coated Dynal beads, four washes with RIPA buffer; immunoblot with anti-GST or anti-His"}},
  "note": "Results are given in words; binding and its absence hold for the method and conditions named. Binding seen in cells or lysates may run through a third protein. Some binding calls cover weakened binding; strength is not graded here. For some of these results: Where a sequence is shown, tags or fusion partners need not be part of it.",
  "data": [
    {"molecule": "His-tagged full-length mouse PLD2 (from UniProt P97813 1-933) (enzyme)", "values": [
      {"measurement": "binding", "setting": "[1]", "value": "binds"}
    ]},
    {"molecule": "phospholipase D2 (PLD2), endogenous in immortalized human corneal epithelial (IHCE) cells (from UniProt O14939 1-933) (enzyme)", "values": [
      {"measurement": "binding", "setting": "[2]", "value": "binds"}
    ]},
    {"molecule": "B1", "values": [
      {"measurement": "binding", "setting": "[3]", "value": "binds"}
    ]},
    {"molecule": "B2", "values": [
      {"measurement": "binding", "setting": "[4]", "value": "binds"}
    ]}
  ]
}
